PubChem BioAssay AID652243 | Drosophila RNAi Screening Center | 2013
The screen tested about 24,000 reagents; shown is a random part of those that have a named target and a result. Over the whole deposit, 246 (1%) are marked active. 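Plates not normalised; calls are printed but the firefly/Renilla ratio behind them is not deposited; fold cut for lowering reported inconsistently.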 Raw values vary from plate to plate and are shown uncorrected. The numbers tell different reagents against one gene apart. Names joined by + are all predicted targets of the reagent. Not given: the amount of reagent.

- Assay: 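Knock-downs that decrease or increase androgen receptor reporter signal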 (primary screen)
- System: Drosophila S2R+ cells
- Knock-down reagent: long dsRNA against Drosophila genes
- Timing: 72 h (48 h, then 24 h hormone)
- Treatment: synthetic androgen R1881 at 10 nM for 24 h
- Read-out: 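Firefly light from an androgen-responsive reporter and Renilla control light per well, raw and unnormalised, for each of two replicates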
- Reading the numbers: firefly reporter light: higher = more light from androgen-responsive reporter; Renilla control light: higher = more constitutive control signal (cell number, transfection)
- Rule for the call: 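Hit when the log firefly-to-Renilla ratio dropped or increased by a fixed fold versus the mean of GFP or LacZ controls across duplicate plates; lowering cut given as 1.5 and as 3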
- Calls: active = hit: reporter lowered or raised; inactive = no hit

target | reagent no. | firefly reporter light, replicate 1 | firefly reporter light, replicate 2 | Renilla control light, replicate 1 | Renilla control light, replicate 2 | Outcome
ath | 1 | 1.22e5 | 1.78e5 | 7.46e5 | 9.20e5 | inactive
CG10348 | 1 | 6.55e5 | 7.55e5 | 1.54e6 | 2.23e6 | inactive
CG10348 | 2 | 9.50e5 | 6.79e5 | 1.45e6 | 1.62e6 | inactive
CG11125 | 1 | 1.46e5 | 1.41e5 | 1.39e6 | 1.37e6 | inactive
l(3)neo43 | 1 | 1.55e5 | 1.13e5 | 2.66e6 | 2.77e6 | inactive
CG8630 | 1 | 39316 | 58578 | 1.37e6 | 1.56e6 | active
CG8630 | 2 | 5.69e5 | 7.95e5 | 1.27e6 | 1.18e6 | inactive
Ric | 1 | 1.17e5 | 1.29e5 | 1.44e6 | 1.44e6 | inactive
Ric | 2 | 2.40e5 | 2.96e5 | 5.45e5 | 4.08e5 | inactive
CG33642 | 1 | 1.01e6 | 6.52e5 | 2.38e6 | 1.35e6 | inactive
net | 1 | 83438 | 1.07e5 | 7.81e5 | 8.16e5 | inactive
CG8613 | 1 | 9.11e5 | 8.26e5 | 2.30e6 | 1.73e6 | inactive
CG8613 | 2 | 5.20e5 | 8.85e5 | 8.77e5 | 1.45e6 | inactive
mRpL27 | 1 | 6.49e5 | 6.43e5 | 1.26e6 | 1.15e6 | inactive
Gem4b + Gem4c | 1 | 7.30e5 | 5.78e5 | 7.90e5 | 6.35e5 | inactive
CG18302 | 1 | 1.77e5 | 1.64e5 | 1.44e6 | 1.62e6 | inactive
CG18302 | 2 | 7.54e5 | 7.67e5 | 1.43e6 | 1.43e6 | inactive
CG15725 | 1 | 5.35e5 | 6.26e5 | 2.28e6 | 3.19e6 | inactive
Aef1 | 1 | 2.54e5 | 2.60e5 | 2.42e6 | 2.92e6 | inactive
pyx | 1 | 1.05e5 | 97057 | 1.06e6 | 1.05e6 | inactive
pyx | 2 | 72333 | 62122 | 1.23e6 | 1.11e6 | inactive
pyx | 3 | 6.00e5 | 4.69e5 | 1.37e6 | 1.33e6 | inactive
puc | 1 | 85027 | 1.56e5 | 1.83e6 | 2.26e6 | inactive
puc | 2 | 2.49e5 | 3.30e5 | 6.99e5 | 6.81e5 | inactive
puc | 3 | – | – | – | – | inactive
wbl | 1 | 82571 | 67016 | 1.01e6 | 1.22e6 | inactive
wbl | 2 | 3.25e5 | 2.75e5 | 2.86e5 | 2.75e5 | inactive
Fas3 | 1 | 1.75e5 | 1.61e5 | 1.14e6 | 9.43e5 | inactive
Fas3 | 2 | 9.40e5 | 1.22e6 | 1.97e6 | 2.67e6 | inactive
Fas3 | 3 | 5.13e5 | 3.92e5 | 1.20e6 | 1.26e6 | inactive
CG34277 + CG31542 | 1 | 2.55e5 | 2.56e5 | 7.84e5 | 4.48e5 | inactive
CG34277 + CG31542 | 2 | 7.47e5 | 5.82e5 | 7.05e5 | 7.10e5 | inactive
CG34277 + CG31542 | 3 | 6.87e5 | 6.87e5 | 2.11e6 | 2.41e6 | inactive
CG42674 | 1 | 3.98e5 | 2.14e5 | 2.90e6 | 3.08e6 | inactive
CG42674 | 2 | 2.70e5 | 2.42e5 | 3.57e6 | 3.36e6 | inactive
CG42674 | 3 | 3.20e5 | 2.74e5 | 3.18e6 | 3.25e6 | inactive
CG42674 | 4 | 7.21e5 | 6.34e5 | 9.00e5 | 7.08e5 | inactive
CG42674 | 5 | 3.26e5 | 3.65e5 | 1.05e6 | 1.20e6 | inactive
brm | 1 | 1.14e5 | 99353 | 7.76e5 | 7.27e5 | inactive
brm | 2 | 4.08e5 | 5.28e5 | 3.44e5 | 4.64e5 | inactive
RhoGEF3 | 1 | 6.92e5 | 8.40e5 | 1.22e6 | 1.47e6 | inactive
RhoGEF3 | 2 | 77688 | 84568 | 1.19e6 | 9.19e5 | inactive
RhoGEF3 | 3 | 1.03e5 | 86524 | 1.05e6 | 8.84e5 | inactive
RhoGEF3 | 4 | 70894 | 1.63e5 | 1.51e6 | 1.93e6 | inactive
Ccp84Ab | 1 | 1.25e5 | 1.08e5 | 1.75e6 | 1.39e6 | inactive
Ccp84Ab | 2 | 7.29e5 | 6.83e5 | 1.26e6 | 1.38e6 | inactive
l(2)SH0834 | 1 | 1.77e5 | 1.45e5 | 1.01e6 | 9.71e5 | inactive
Ugt303A1 | 1 | 1.87e5 | 2.24e5 | 2.16e6 | 2.78e6 | inactive
CG9444 | 1 | 93326 | 95878 | 1.13e6 | 1.34e6 | inactive
HGTX | 1 | 1.16e5 | 1.22e5 | 2.33e5 | 2.62e5 | inactive
HGTX | 2 | 1.49e5 | 1.80e5 | 2.45e6 | 2.15e6 | inactive
CG11788 | 1 | 67845 | 52326 | 1.04e6 | 9.78e5 | inactive
18SrRNA-Psi:CR41602 | 1 | 7.56e5 | 7.14e5 | 2.29e6 | 2.10e6 | inactive
CG5895 | 1 | 2.08e5 | 1.78e5 | 1.54e6 | 1.07e6 | inactive
CG7881 | 1 | 2.99e5 | 2.24e5 | 1.95e6 | 1.25e6 | inactive
CG17683 | 1 | 1.85e5 | 1.89e5 | 6.62e5 | 6.52e5 | inactive
CG17683 | 2 | 2.68e5 | 3.43e5 | 4.94e5 | 8.26e5 | inactive
CG30413 | 1 | 65045 | 1.17e5 | 1.32e5 | 1.32e5 | inactive
CG30413 | 2 | 3.38e5 | 3.51e5 | 6.87e5 | 6.87e5 | inactive

Entries listed so far whose gene name starts with L or l:
target | reagent no. | firefly reporter light, replicate 1 | firefly reporter light, replicate 2 | Renilla control light, replicate 1 | Renilla control light, replicate 2 | Outcome
l(3)neo43 | 1 | 1.55e5 | 1.13e5 | 2.66e6 | 2.77e6 | inactive
l(2)SH0834 | 1 | 1.77e5 | 1.45e5 | 1.01e6 | 9.71e5 | inactive
